Experimental data as given in PubChem BioAssay AID1487 (National Center for Advancing Translational Sciences (NCATS), 2009).
The list shows a part of the results. The main result of the screen is listed elsewhere. These columns were measured beside it and carry no call. Most of these compounds were active or inconclusive in the main read-out, so they are no random draw. Potencies come from curve fits of mixed quality, noted in brackets.

Experiment: qHTS Assay for Modulators of Lamin A Splicing
Settings: HeLa LMNA splicing GFP/RFP minigene ratio, 48 h
Outline: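 S3 HeLa cells stably expressing lamin A-EGFP splicing minigene plus DsRed2, 600 cells/well, 48 h compound exposure at 37C. Laser-scanning cytometry; analysed as GFP (500-530 nm)/RFP (575-640 nm) total intensity ratio; 0.5% DMSO vehicle.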

[1] = measured here: GFP splicing reporter channel
[2] = measured here: RFP viability control channel

In the case of `c1csc(CNc2nc(-c3ccc4c(c3)OCO4)nc3ccccc23)c1`, the AC50 [1] is reported as 31.6 µM [falling, single point] and the AC50 [2] is reported as 35.5 µM [falling, single point].
In the case of `COc1cccc(Cn2c(=O)c(C)nc3cnc(Nc4cccc(OC)c4)nc32)c1`, the AC50 [2] is reported as 12.6 µM [falling, partial curve].
In the case of `CCCn1c(C)cc(C(=O)CSc2nc3ccccc3c(=O)n2Cc2ccco2)c1C`, the AC50 [2] is reported as 12.6 µM [rising, partial curve].
For `CCOC(=O)c1sc(Nc2ccc(C)cc2C)nc1C`, the AC50 [1] was 8.91 µM [falling, partial curve] and the AC50 [2] was 7.08 µM [falling, full curve].
For `CCN1CCN(C(=S)Nc2ccc(Cl)cc2Cl)CC1`, the AC50 [1] was 22.4 µM [rising, single point] and the AC50 [2] was 22.4 µM [rising, single point].
With `CC(=O)c1cccc(NC(=O)C(Sc2ncnc3ccccc23)c2ccccc2)c1` (stereo not drawn) the AC50 [1] was 35.5 µM [falling, single point].
With `CCCCN(C(=O)c1cccc(S(=O)(=O)N2CCCCC2)c1)C1CCS(=O)(=O)C1` (stereo not drawn) the AC50 [2] was 0.355 µM [falling, full curve, poor fit].
In the case of `CC(c1nccs1)N(C)c1nc2nonc2nc1N(C)C` (stereo not drawn), the AC50 [1] is reported as 0.447 µM [falling, partial curve, poor fit] and the AC50 [2] is reported as 0.501 µM [falling, full curve, poor fit].
For `COc1ccccc1-c1cc(C(F)(F)F)nc(S(=O)(=O)CCCC(=O)Nc2cccnc2Cl)n1`, the AC50 [2] was 2.82 µM [rising, partial curve].
With `CN(C/C=C\c1ccccc1)Cc1cccc2ccccc12` the AC50 [1] was 3.16 µM [falling, single point] and the AC50 [2] was 3.16 µM [falling, single point].
With `Cc1ccccc1C(=O)/C=C1\NC(=O)CS1` the AC50 [1] was 12.6 µM [rising, single point] and the AC50 [2] was 14.1 µM [rising, single point].
With `Cc1cccc(C)c1NC(=O)CCCSc1nc2ccccc2s1` the AC50 [2] was 25.1 µM [rising, single point].
In the case of `O=C(/C=C/c1ccco1)Nc1ccc(S(=O)(=O)N2CCOCC2)cc1`, the AC50 [1] is reported as 0.282 µM [falling, partial curve, poor fit] and the AC50 [2] is reported as 15.8 µM [falling, partial curve, poor fit].
In the case of `O=C(Nn1c(Cc2cccs2)nc2ccccc2c1=O)c1cccs1`, the AC50 [2] is reported as 20 µM [rising, single point].
With `O=C(Cc1cccs1)NCCSc1c(-c2ccc(Cl)cc2)[nH]c2ccccc12` the AC50 [1] was 11.2 µM [rising, partial curve, poor fit] and the AC50 [2] was 22.4 µM [rising, partial curve].
